Counter-ions that a name gives are not always drawn. This is one part of the list. Hit calls seldom repeat between salt and free forms of one compound.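 In K562 cells expressing nanoluciferase-fused kinases, luminescence was recorded at 4 h intervals between 2 and 18 h, normalized as percent of control with DMSO at 100% and a positive control at 0%. A significant (2 sigma) signal drop marks a time point as decreased. The authors' rule for a hit is not shown and takes in more than the number of time points.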
Assays:
Test in all cases: number of time points (of 5) at which kinase-Nluc abundance scored as decreased, DMSO-normalised (count); higher = more persistent destabilization
Settings in all cases: K562; 2-18 h
[1] = molecular target: PRKCA (UniProt P17252)
[2] = molecular target: PTK2 (UniProt Q05397)
[3] = molecular target: PTK2B (UniProt Q14289)
[4] = molecular target: RAF1 (UniProt P04049)
[5] = molecular target: RAF1_S257L (clone: RAF1_mut) (UniProt P04049)
[6] = molecular target: RET (UniProt P07949)
[7] = molecular target: RET_M918T (clone: RET_mut) (UniProt P07949)
[8] = molecular target: RIOK1 (UniProt Q9BRS2)
[9] = molecular target: RIPK1 (UniProt Q13546)
[10] = molecular target: RIPK2 (UniProt O43353)
[11] = molecular target: ROR2 (UniProt Q01974)
[12] = molecular target: RPS6KA1 (UniProt Q15418)
[13] = molecular target: SPHK1 (UniProt Q9NYA1)
[14] = molecular target: SRC (UniProt P12931)
[15] = molecular target: STK24 (UniProt Q9Y6E0)
[16] = molecular target: STK38 (UniProt Q15208)
[17] = molecular target: SYK (UniProt P43405)
[18] = molecular target: TEC (UniProt P42680)
[19] = molecular target: TYK2 (UniProt P29597)
[20] = molecular target: ULK3 (UniProt Q6PHR2)

The chains behind the UniProt entries cited, without tags or fusion partners. Where a name states a change or a piece, a line headed by the entry shows the natural chain unless it says otherwise.
UniProt Q14289, whole entry, looked up: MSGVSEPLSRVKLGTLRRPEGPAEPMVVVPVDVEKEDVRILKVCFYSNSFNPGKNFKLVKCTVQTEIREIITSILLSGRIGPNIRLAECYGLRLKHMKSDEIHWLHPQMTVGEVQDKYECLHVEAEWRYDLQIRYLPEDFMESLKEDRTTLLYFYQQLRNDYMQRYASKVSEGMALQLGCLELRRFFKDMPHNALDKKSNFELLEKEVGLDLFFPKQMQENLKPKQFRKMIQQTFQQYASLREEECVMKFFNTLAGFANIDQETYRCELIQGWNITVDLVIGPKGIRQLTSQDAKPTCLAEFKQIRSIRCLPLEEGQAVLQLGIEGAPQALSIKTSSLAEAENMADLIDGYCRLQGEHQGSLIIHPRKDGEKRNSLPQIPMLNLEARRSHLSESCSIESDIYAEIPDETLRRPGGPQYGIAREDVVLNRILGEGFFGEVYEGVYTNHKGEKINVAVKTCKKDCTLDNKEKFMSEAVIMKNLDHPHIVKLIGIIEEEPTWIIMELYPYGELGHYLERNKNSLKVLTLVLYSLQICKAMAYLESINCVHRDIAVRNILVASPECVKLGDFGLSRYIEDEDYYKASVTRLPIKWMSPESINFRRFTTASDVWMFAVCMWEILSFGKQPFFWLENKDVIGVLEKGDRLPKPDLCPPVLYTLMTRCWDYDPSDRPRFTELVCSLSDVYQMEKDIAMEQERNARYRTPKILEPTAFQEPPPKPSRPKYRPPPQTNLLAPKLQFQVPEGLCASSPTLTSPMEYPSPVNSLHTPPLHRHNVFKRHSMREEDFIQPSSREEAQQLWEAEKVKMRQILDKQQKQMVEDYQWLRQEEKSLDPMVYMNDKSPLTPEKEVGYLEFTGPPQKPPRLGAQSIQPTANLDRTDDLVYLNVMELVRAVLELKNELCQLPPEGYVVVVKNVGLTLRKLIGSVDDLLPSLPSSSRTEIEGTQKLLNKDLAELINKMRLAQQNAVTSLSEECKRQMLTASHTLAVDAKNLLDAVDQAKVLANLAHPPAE
UniProt P07949, whole entry, looked up: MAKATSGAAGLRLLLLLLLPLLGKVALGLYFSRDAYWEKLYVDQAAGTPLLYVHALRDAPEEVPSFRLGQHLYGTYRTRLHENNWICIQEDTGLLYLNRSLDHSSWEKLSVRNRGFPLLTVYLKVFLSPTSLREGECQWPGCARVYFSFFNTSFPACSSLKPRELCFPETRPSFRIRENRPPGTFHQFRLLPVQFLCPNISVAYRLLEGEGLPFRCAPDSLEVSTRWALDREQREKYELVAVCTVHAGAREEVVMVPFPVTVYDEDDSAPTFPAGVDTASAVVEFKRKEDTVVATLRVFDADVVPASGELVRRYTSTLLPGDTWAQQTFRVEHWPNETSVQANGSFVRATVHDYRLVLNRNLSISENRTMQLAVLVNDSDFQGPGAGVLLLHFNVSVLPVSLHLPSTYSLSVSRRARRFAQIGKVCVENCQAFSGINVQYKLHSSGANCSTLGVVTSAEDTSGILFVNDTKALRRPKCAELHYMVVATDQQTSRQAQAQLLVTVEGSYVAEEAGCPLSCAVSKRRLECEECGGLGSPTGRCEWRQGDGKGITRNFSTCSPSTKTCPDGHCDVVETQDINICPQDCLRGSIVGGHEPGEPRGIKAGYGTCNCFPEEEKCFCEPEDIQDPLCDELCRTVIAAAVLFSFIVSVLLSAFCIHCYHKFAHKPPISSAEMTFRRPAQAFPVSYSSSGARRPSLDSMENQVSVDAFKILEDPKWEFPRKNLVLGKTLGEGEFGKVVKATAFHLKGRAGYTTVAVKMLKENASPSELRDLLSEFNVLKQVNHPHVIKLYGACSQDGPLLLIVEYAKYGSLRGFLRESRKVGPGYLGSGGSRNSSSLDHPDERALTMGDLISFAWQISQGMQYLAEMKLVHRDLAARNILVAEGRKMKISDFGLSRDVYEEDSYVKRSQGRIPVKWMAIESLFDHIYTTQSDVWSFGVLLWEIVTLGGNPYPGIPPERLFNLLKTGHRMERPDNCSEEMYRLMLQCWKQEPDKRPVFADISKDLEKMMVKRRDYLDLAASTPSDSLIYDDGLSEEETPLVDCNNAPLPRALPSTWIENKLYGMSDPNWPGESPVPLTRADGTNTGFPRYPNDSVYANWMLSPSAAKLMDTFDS
UniProt Q13546: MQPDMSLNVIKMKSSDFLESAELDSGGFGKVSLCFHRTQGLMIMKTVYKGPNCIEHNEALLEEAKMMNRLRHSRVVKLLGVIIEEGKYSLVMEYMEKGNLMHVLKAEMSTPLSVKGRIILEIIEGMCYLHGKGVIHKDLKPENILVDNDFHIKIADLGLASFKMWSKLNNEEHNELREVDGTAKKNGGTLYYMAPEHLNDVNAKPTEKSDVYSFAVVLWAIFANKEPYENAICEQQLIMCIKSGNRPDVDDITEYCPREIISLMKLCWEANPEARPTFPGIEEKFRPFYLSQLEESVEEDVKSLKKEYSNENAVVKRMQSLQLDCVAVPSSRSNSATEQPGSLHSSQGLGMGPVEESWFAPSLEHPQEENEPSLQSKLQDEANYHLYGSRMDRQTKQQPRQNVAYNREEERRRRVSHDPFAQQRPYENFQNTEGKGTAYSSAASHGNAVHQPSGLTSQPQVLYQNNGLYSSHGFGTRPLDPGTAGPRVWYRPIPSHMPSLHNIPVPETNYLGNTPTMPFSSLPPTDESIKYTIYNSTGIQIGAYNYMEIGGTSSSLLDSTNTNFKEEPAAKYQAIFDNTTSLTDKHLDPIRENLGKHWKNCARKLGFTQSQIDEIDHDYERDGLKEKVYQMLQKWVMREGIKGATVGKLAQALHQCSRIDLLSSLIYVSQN
UniProt Q01974, whole entry: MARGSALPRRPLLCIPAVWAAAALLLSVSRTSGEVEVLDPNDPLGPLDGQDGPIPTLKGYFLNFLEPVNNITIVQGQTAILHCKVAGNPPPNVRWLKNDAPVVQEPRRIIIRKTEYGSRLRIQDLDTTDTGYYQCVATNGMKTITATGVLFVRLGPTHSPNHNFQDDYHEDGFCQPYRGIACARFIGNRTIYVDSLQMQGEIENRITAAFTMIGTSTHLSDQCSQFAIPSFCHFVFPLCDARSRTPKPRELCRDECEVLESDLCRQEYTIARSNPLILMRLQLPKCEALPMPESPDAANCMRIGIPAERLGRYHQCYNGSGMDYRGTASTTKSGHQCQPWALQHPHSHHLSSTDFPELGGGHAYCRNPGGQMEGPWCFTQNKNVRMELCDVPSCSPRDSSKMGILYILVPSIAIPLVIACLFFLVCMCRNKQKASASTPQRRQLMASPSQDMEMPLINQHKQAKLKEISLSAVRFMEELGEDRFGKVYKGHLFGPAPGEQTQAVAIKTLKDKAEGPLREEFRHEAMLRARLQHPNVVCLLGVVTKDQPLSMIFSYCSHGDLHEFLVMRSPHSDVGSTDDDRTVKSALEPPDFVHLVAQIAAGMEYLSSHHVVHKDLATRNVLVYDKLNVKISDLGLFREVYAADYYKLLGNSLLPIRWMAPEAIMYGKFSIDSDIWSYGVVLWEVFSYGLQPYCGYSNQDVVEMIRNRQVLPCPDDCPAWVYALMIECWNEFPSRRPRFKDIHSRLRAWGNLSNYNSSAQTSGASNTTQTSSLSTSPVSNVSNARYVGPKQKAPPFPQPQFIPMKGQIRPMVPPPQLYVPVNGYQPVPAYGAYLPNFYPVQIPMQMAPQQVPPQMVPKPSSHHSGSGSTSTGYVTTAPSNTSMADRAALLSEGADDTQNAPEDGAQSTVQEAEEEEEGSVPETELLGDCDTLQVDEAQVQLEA
UniProt Q9NYA1, whole entry: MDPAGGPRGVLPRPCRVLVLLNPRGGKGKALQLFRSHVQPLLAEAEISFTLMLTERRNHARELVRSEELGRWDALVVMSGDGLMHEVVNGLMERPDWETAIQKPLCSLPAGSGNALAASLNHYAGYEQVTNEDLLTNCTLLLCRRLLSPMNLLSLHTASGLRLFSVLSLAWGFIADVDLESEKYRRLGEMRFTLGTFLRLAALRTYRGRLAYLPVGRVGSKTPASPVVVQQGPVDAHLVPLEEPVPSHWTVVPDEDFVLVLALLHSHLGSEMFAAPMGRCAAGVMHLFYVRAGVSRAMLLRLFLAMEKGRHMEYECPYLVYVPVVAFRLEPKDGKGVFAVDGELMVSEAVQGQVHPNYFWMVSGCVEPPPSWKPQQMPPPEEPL
UniProt Q9Y6E0: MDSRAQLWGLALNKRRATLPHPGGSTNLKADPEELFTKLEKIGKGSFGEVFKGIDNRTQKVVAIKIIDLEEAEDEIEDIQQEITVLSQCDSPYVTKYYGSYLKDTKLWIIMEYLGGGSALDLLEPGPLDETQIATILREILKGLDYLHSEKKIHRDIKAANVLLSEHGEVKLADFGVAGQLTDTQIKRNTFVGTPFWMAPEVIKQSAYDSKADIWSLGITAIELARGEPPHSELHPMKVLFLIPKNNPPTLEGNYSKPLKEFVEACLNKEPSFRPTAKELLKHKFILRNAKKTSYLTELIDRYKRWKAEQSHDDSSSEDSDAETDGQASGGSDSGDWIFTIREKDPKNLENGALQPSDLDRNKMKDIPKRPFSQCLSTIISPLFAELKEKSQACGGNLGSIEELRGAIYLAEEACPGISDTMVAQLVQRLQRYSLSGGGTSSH
UniProt P42680: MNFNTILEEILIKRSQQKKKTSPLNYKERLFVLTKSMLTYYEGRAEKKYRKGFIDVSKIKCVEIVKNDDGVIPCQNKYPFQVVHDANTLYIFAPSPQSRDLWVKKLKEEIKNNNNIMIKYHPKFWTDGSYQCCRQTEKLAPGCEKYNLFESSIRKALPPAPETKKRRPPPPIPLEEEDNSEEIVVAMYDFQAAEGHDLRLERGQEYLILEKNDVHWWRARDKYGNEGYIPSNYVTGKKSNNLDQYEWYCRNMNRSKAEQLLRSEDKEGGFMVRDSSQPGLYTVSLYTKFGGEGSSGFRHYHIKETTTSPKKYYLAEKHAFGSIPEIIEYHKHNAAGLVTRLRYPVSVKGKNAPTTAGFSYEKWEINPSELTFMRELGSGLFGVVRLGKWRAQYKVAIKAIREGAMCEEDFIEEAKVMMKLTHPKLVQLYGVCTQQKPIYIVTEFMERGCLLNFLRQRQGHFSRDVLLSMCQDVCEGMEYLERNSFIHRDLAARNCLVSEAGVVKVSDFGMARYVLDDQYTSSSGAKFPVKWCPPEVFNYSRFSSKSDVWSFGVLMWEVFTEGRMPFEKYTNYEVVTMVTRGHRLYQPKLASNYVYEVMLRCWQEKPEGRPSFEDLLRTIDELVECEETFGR
UniProt Q6PHR2: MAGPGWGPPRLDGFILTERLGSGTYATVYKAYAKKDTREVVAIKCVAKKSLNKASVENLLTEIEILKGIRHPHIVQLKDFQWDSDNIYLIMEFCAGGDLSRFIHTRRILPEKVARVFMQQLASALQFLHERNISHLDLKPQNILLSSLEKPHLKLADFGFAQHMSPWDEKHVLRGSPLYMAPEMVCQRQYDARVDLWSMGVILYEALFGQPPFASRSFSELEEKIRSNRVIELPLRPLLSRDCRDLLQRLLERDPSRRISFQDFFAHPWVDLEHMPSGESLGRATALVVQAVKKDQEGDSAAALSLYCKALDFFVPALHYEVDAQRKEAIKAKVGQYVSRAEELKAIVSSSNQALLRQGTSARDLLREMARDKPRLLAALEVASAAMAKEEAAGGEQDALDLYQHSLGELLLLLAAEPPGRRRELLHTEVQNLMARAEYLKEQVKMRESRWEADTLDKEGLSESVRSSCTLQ

Measured: number of time points

CCCCOc1ccc(CC/C=C2\SC(=O)N(CCN)C2=O)cc1 [K145 (hydrochloride)] (2.5 µM)
0: [1] | [2] | [3] | [4] | [5] | [6] | [7] | [8] | [9] | [10] | [11] | [12] | [13] | [14] | [15] | [16] | [17] | [18] | [19] | [20]

Cn1ncc(Cl)c1-c1cc(C(=O)N[C@H](CN)Cc2ccc(F)c(F)c2)sc1Cl (10 µM)
1: [10]
2: [4] | [16]
0: [1] | [3] | [6] | [7] | [8] | [11] | [12] | [13] | [14] | [15] | [17] | [18] | [19] | [20]
4: [5]
3: [2] | [9]

COc1nc(-c2cccc3c2OCCO3)ccc1Nc1ccc(CN(C)C)cc1 [RAS inhibitor Abd-7] (10 µM)
1: [13]
0: [1] | [2] | [3] | [4] | [5] | [6] | [7] | [8] | [9] | [10] | [11] | [12] | [14] | [15] | [16] | [17] | [18] | [19] | [20]

CSc1ccc(CN2CCCC(Nc3ccc4[nH]ncc4c3)C2)cc1 (stereo not given) [Rho-Kinase-IN-1] (10 µM)
0: [1] | [2] | [3] | [4] | [5] | [6] | [7] | [8] | [9] | [10] | [11] | [12] | [13] | [14] | [15] | [16] | [17] | [18] | [19] | [20]

CCc1cccc(CC)c1NC(=O)c1nn(C)c2c1CCc1cnc(Nc3ccc(C(=O)NC4CCN(C)CC4)cc3OC(F)(F)F)nc1-2 (2 µM)
0: [1] | [2] | [3] | [4] | [5] | [6] | [7] | [8] | [9] | [10] | [11] | [12] | [13] | [14] | [15] | [16] | [17] | [18] | [19] | [20]

CC(C)(O)[C@@H]1CC[C@](C)([C@H]2[C@@H](O)C[C@@]3(C)[C@@H]4C[C@H](O[C@@H]5O[C@H](CO)[C@@H](O)[C@H](O)[C@H]5O)[C@H]5C(C)(C)[C@@H](O[C@@H]6OC[C@@H](O)[C@H](O)[C@H]6O[C@@H]6O[C@H](CO)[C@@H](O)[C@H](O)[C@H]6O)CC[C@@]56C[C@@]46CC[C@]23C)O1 [Astragaloside VI] (10 µM)
0: [1] | [2] | [3] | [4] | [5] | [6] | [7] | [8] | [9] | [10] | [11] | [12] | [13] | [14] | [15] | [16] | [17] | [18] | [19] | [20]

c1ccc(-c2nn3c(c2-c2ccnc4cc(OCCN5CCOCC5)ccc24)CCC3)nc1 (10 µM)
4: [10]
0: [1] | [2] | [3] | [4] | [5] | [6] | [7] | [8] | [9] | [11] | [12] | [13] | [14] | [15] | [16] | [17] | [18] | [19] | [20]

CC(C)c1cc(/C=C(\C#N)C(N)=O)cc(C(C)C)c1O (10 µM)
0: [1] | [2] | [3] | [4] | [5] | [6] | [7] | [8] | [9] | [10] | [11] | [12] | [13] | [14] | [15] | [16] | [17] | [18] | [19] | [20]

O=C(c1ccc(Nc2nccc(-c3cc4ccccc4s3)n2)cc1)N1CCC(N2CCCC2)CC1 (2.5 µM)
0: [1] | [2] | [3] | [4] | [5] | [6] | [7] | [8] | [9] | [10] | [11] | [12] | [13] | [14] | [15] | [16] | [17] | [18] | [19] | [20]

COc1cc2ncnc(Nc3ccc(NC(=O)c4ccccc4)cc3)c2cc1OC [Aurora kinase inhibitor-2] (2.5 µM)
0: [1] | [2] | [3] | [4] | [5] | [6] | [7] | [8] | [9] | [10] | [11] | [12] | [13] | [14] | [15] | [16] | [17] | [18] | [19] | [20]

Arranged by SMILES length (ascending): part of the list above.
CCCCOc1ccc(CC/C=C2\SC(=O)N(CCN)C2=O)cc1 [K145 (hydrochloride)] (2.5 µM)
0: [1] | [2] | [3] | [4] | [5] | [6] | [7] | [8] | [9] | [10] | [11] | [12] | [13] | [14] | [15] | [16] | [17] | [18] | [19] | [20]

O=C(c1ccc(Nc2nccc(-c3cc4ccccc4s3)n2)cc1)N1CCC(N2CCCC2)CC1 (2.5 µM)
0: [1] | [2] | [3] | [4] | [5] | [6] | [7] | [8] | [9] | [10] | [11] | [12] | [13] | [14] | [15] | [16] | [17] | [18] | [19] | [20]

CCc1cccc(CC)c1NC(=O)c1nn(C)c2c1CCc1cnc(Nc3ccc(C(=O)NC4CCN(C)CC4)cc3OC(F)(F)F)nc1-2 (2 µM)
0: [1] | [2] | [3] | [4] | [5] | [6] | [7] | [8] | [9] | [10] | [11] | [12] | [13] | [14] | [15] | [16] | [17] | [18] | [19] | [20]

Remaining list, next part:

N#Cc1ccc(-c2c(-c3ncn[nH]3)sc(N3CCOCC3)c2C#N)c(F)c1 (10 µM)
0: [1] | [2] | [3] | [6] | [7] | [8] | [9] | [10] | [11] | [12] | [13] | [14] | [15] | [16] | [17] | [18] | [19] | [20]
3: [5]
1: [4]

Cc1ccc(-c2ccc3c(ccc4sc5c(c43)NC[C@@H](C)NC5=O)n2)cn1 (10 µM)
0: [1] | [2] | [3] | [4] | [5] | [6] | [7] | [8] | [9] | [10] | [11] | [12] | [13] | [14] | [15] | [16] | [17] | [18] | [19] | [20]

CCOc1ccccc1C=C1C(=O)Nc2ccccc21 (10 µM)
2: [19]
0: [1] | [2] | [3] | [4] | [5] | [6] | [7] | [8] | [9] | [10] | [11] | [12] | [13] | [14] | [15] | [16] | [17] | [18] | [20]

O=c1cc(-c2ccc(O)c(O)c2O)oc2ccccc12 (10 µM)
0: [1] | [2] | [3] | [4] | [5] | [6] | [7] | [8] | [9] | [10] | [11] | [12] | [13] | [14] | [15] | [16] | [17] | [18] | [19] | [20]

CCN1/C(=C/C(C)=O)Sc2ccc(OC)cc21 (10 µM)
1: [1] | [6] | [8] | [15] | [16]
3: [2] | [9] | [18] | [19]
2: [10]
0: [3] | [4] | [5] | [7] | [11] | [12] | [13] | [14] | [17] | [20]

Cc1cc2cc(Oc3ccnc(Nc4cccc(CS(=O)(=O)NCCN(C)C)c4)n3)ccc2[nH]1 [Sulfatinib] (10 µM)
1: [2] | [8] | [20]
0: [1] | [3] | [4] | [6] | [7] | [11] | [12] | [13] | [14] | [15] | [16] | [17] | [18]
2: [9]
4: [5]
3: [10] | [19]

O=C(O)c1ccc(N2N=C(Cc3ccccc3)C(=Cc3ccc(-c4ccccc4F)o3)C2=O)cc1 (10 µM)
0: [1] | [2] | [3] | [4] | [5] | [6] | [7] | [8] | [9] | [10] | [11] | [12] | [13] | [14] | [15] | [16] | [17] | [18] | [19] | [20]

CN1C(=O)NC(Cc2c[nH]c3c(Cl)cccc23)C1=O (racemic) [Necrostatin 2 (racemate)] (10 µM)
0: [1] | [2] | [3] | [4] | [5] | [6] | [7] | [8] | [9] | [10] | [11] | [12] | [13] | [14] | [15] | [16] | [17] | [18] | [19] | [20]

O=C1NC(=O)C(c2cnc3ccccn23)=C1c1cn2c3c(cc(F)cc13)CN(C(=O)N1CCCCC1)CC2 (2.5 µM)
0: [1] | [2] | [3] | [4] | [5] | [6] | [7] | [8] | [9] | [10] | [11] | [12] | [13] | [14] | [15] | [16] | [17] | [18] | [19] | [20]

CC(C)c1ccc(CC(=O)N2CCN(c3ccc(C#N)nn3)CC2)cc1 (10 µM)
0: [1] | [2] | [3] | [4] | [5] | [6] | [7] | [8] | [9] | [10] | [11] | [12] | [13] | [14] | [15] | [16] | [17] | [18] | [19] | [20]

CCc1c(C)sc(NC(=S)NC(=O)c2ccc(Cl)cc2)c1C(N)=O (10 µM)
0: [1] | [2] | [3] | [4] | [5] | [6] | [7] | [8] | [9] | [10] | [11] | [12] | [13] | [14] | [15] | [16] | [17] | [18] | [19] | [20]

C[C@H]1Cc2ccccc2N1C(=O)Cc1nc(N2CCOCC2)cc(=O)[nH]1 (2.5 µM)
0: [1] | [2] | [3] | [4] | [5] | [6] | [7] | [8] | [9] | [10] | [11] | [12] | [13] | [14] | [15] | [16] | [17] | [18] | [19] | [20]

Nc1cccc(S(=O)(=O)N2CCCN(S(=O)(=O)c3ccc4c(c3)OCCO4)CC2)c1 (10 µM)
0: [1] | [2] | [3] | [4] | [5] | [6] | [7] | [8] | [9] | [10] | [11] | [12] | [13] | [14] | [15] | [16] | [17] | [18] | [19] | [20]

CC(CCc1ccccn1)(CCc1ccccn1)C(=O)c1ccccc1 (10 µM)
0: [1] | [2] | [3] | [4] | [5] | [6] | [7] | [8] | [9] | [10] | [11] | [12] | [13] | [14] | [15] | [16] | [17] | [18] | [19] | [20]

— the supplement of paper PMC12823440, “Inhibitors supercharge kinase turnover through native proteolytic circuits” (Nature, 2025)
